Laboratory results taken from PMC12040169 (PLOS Biology, 2025).
This is one part of the list.

system: T1, CTL2-GFP (C. trachomatis L2/434/Bu, GFP-expressing); set-up: species or system HeLa; Intracellular C. trachomatis growth in HeLa cells, bulk GFP fluorescence relative to DMSO; conditions: bulk GFP, single well; 28.5 h, 10 µM; inhibitor
T1 construct: L2/434/Bu, GFP-expressing

Row | SMILES | % of control remaining [%]
1 | NS(=O)(=O)c1ccc(NC(=O)C2Cc3ccccc3CN2S(=O)(=O)c2ccc(F)cc2)cc1 (stereo not drawn) [CBK265208] | 147.207
2 | O=C(COc1ccc(S(=O)(=O)NC2CCCCC2)cc1)N1CCN(c2cccc(Cl)c2)CC1 [CBK265948] | 101.276
3 | O=C(Nc1ccsc1C(=O)O)c1ccc(Cl)cc1 [CBK076902] | 171.564
4 | CC(=O)N1CCC(n2c(C3CC3)nc3sc(C)c(C)c3c2=O)CC1 [CBK282369] | 99.1715
5 | Cc1cc(Br)ccc1C(=O)NCCc1c[nH]c2ccc(Cl)cc12 [CBK159771] | 29.2627
6 | O=C(c1c[nH]c2ccccc12)C(O)C(c1ccccc1)N1CCCCC1 (stereo not drawn) [CBK267799] | 118.088
7 | Cc1noc(C)c1NC(=O)c1c(C)noc1C [CBK200305] | 99.1354
8 | O=C(NCC1(c2ccccc2)CCCC1)c1ccc(=O)n(CC(=O)N2CCCCC2)c1 [CBK286082] | 122.645
9 | O=C1COc2ccccc2C(=O)N[C@@H]2CCOC[C@@H]2C/C=C/C[C@H]2[C@H](CCCN2CCO)N1 [CBK292149] | 100
10 | FC(F)(F)c1nc2ccccc2nc1Sc1nc[nH]n1 [CBK093808] | 106.415
11 | CCCNc1nc(-c2ccc(C)c(C)c2)cn2ccnc12 [CBK066627] | 147.151
12 | CCCC(=O)c1ccc(S(=O)(=O)N2CCCN(Cc3cccc4cccnc34)CC2)cc1 [CBK062909] | 129.516
13 | CC1=C(C)CC(C(=O)Nc2ccc3c(c2)oc2ccccc23)C(C(=O)O)C1 (stereo not drawn) [CBK263533] | 118.101
14 | COCC(=O)NC(C)c1nc2ccccc2n1Cc1ccccc1C (stereo not drawn) [CBK269885] | 128.274
15 | COc1ccc(-c2cnc(NCC3CC3)c(C(=O)N3CCN(C)CC3)c2)cc1 [CBK076327] | 97.5923
16 | O=C(c1ccc2[nH]ccc2c1)N1CCN(CC2CCOC2)CC1 (stereo not drawn) [CBK304866] | 96.3941
17 | O=C(CSc1nnc(-c2ccc(Cl)cc2Cl)[nH]1)Nc1ccc(F)cc1 [CBK267651] | 122.017
18 | CC(NC(=O)CCc1ccncc1)c1nc2ccccc2s1 (stereo not drawn) [CBK281666] | 110.109
19 | c1ccc(CSc2ncnc3c2oc2ccccc23)cc1 [CBK287398] | 156.907
20 | COc1cccc([C@H]2CN(C(=O)c3ccccc3)[C@@H]3CCN(Cc4ccccc4)C[C@H]23)c1 [CBK285624] | 114.747
21 | CN(CC(O)CO)C(=O)c1coc(COc2cccc(F)c2)n1 (stereo not drawn) [CBK306854] | 106.787
22 | COc1ccc2[nH]cc(CCNC(=O)c3ccc(C)nc3N3CCOCC3)c2c1 [CBK106203] | 128.842
23 | CC(C)n1c(=O)n(CC(=O)N2CCCCC2)c2cccnc21 [CBK283526] | 117.766
24 | CC(C)S(=O)(=O)n1ccn(-c2ccc(Oc3ccccc3)cc2)c1=O [CBK106644] | 105.35
25 | O=C(O)CN(CC(=O)O)S(=O)(=O)c1ccc(Cl)cc1 [CBK261526] | 103.114
26 | COc1ccc2c(c1)c(C)c(C(=O)NC(C)Cc1ccccn1)n2C (stereo not drawn) [CBK281425] | 120.042

Shown as labelled records: 4 of the compounds above
CCCNc1nc(-c2ccc(C)c(C)c2)cn2ccnc12 [CBK066627]
  % of control remaining [%]: 147.151
CC(C)S(=O)(=O)n1ccn(-c2ccc(Oc3ccccc3)cc2)c1=O [CBK106644]
  % of control remaining [%]: 105.35
O=C(O)CN(CC(=O)O)S(=O)(=O)c1ccc(Cl)cc1 [CBK261526]
  % of control remaining [%]: 103.114
COc1ccc2c(c1)c(C)c(C(=O)NC(C)Cc1ccccn1)n2C (stereo not drawn) [CBK281425]
  % of control remaining [%]: 120.042

Next entries.

Row | SMILES | % of control remaining [%]
27 | CCOc1ccccc1NC(=O)c1ccc(CS(=O)(=O)c2ccc(C)cc2)cc1 [CBK268572] | 145.37
28 | COCc1[nH]nc(O)c1Cc1c(Cl)cccc1Cl [CBK105305] | 104.792
29 | CCN(CC)S(=O)(=O)c1cc(S(=O)(=O)N(CC)CC)c2cccc3c2c1NC(=O)O3 [CBK005022] | 105.96
30 | O=C(O)CCCC(=O)OCc1ccco1 [CBK260933] | 115.536
31 | CCC(CO)Nc1cncc(-c2cccc(N)c2)n1 (stereo not drawn) [CBK065278] | 169.612
32 | Cc1ccc(CCC(=O)Nc2ccc(S(N)(=O)=O)cc2)o1 [CBK269031] | 152.24
33 | CNC(=O)C1(Cc2ccc(-c3cccc(C)c3)cc2)CCN(C(=O)CC(C)(C)C)CC1 [CBK285923] | 119.438
34 | CNC(=O)CN(C)C(=O)c1coc(COc2ccc3sc(C)nc3c2)n1 [CBK307571] | 130.328
35 | CCCC(NC(=O)Nc1ccnn1CC(C)C)c1nccn1C (stereo not drawn) [CBK307444] | 182.625
36 | COc1ccc(S(=O)(=O)N2CCOCC2)cc1C(=O)N1CCCC(C)C1 (stereo not drawn) [CBK305011] | 104.004
37 | CC(C)(C)c1ccc(-c2nc3ncccc3cc2N)cc1 [CBK067611] | 168.862
38 | CC1Cc2ccccc2N1C(=O)CSc1nnc(N)s1 (stereo not drawn) [CBK269530] | 142.776
39 | O=C(c1cc(F)cc(F)c1)N1CC[C@@H](c2ccccc2)[C@H](O)C1 [CBK283715] | 125.838
40 | O=C(COc1ccc2ccccc2c1Br)NCc1ccccn1 [CBK267361] | 146.092
41 | CCNC(=O)N1CC2(CCN(Cc3ccc(OC(F)(F)F)cc3)CC2)c2ccccc21 [CBK126688] | 98.6084
42 | Cc1ccc(O)c(NC(=O)c2nc3nc(C)cc(C(F)F)n3n2)c1 [CBK266186] | 155.181
43 | O=C(COc1ccc2ccccc2c1)Nc1cc([N+](=O)[O-])ccc1F [CBK263780] | 127.89
44 | CCOC(=O)c1ccc(-c2ccc(/C=N/N=C3\NC(=O)C(CC(=O)O)S3)o2)cc1 (stereo not drawn) [CBK264474] | 124.031
45 | Cc1ccc(NS(=O)(=O)c2ccc(OC(F)(F)F)cc2)c(CO)c1 [CBK043267] | 115.291
46 | O=C(OCc1ccccc1)N1CCN(c2ccccc2)CC1 [CBK200241] | 150.025
47 | Nn1c(SCCCCSc2nnc(C(F)(F)F)n2N)nnc1C(F)(F)F [CBK267946] | 126.103
48 | CCCc1cc(CNC(=O)c2ccnn2C(C)C)on1 [CBK282047] | 170.441
49 | O=c1nc(CNc2ccc(Br)cc2)[nH][nH]1 [CBK288403] | 109.016
50 | COc1ccc(CC(=O)N2CC=C(c3ccc(C)o3)CC2)cc1 [CBK283572] | 98.7474
51 | CN1CCN(C(=O)CN(c2cccc([N+](=O)[O-])c2)S(=O)(=O)c2ccccc2)CC1 [CBK264121] | 125.036
52 | CCCN1C(=O)COc2ccc(-c3noc(-c4ccccn4)n3)cc21 [CBK288596] | 133.919

Reformatted as comma-separated lines: part of the list above.
Row,SMILES,% of control remaining [%]
29,CCN(CC)S(=O)(=O)c1cc(S(=O)(=O)N(CC)CC)c2cccc3c2c1NC(=O)O3 [CBK005022],105.96
46,O=C(OCc1ccccc1)N1CCN(c2ccccc2)CC1 [CBK200241],150.025

Following part

Row | SMILES | % of control remaining [%]
53 | CCn1cc(C(=O)O)c(=O)c2cc(F)c(N3CCN(C(=S)NC(=O)c4c(-c5ccccc5)noc4C)CC3)cc21 [CBK267490] | 137.155
54 | N#Cc1c(F)cccc1N1CCCC(C(=O)Nc2nncs2)C1 (stereo not drawn) [CBK306335] | 106.101
55 | COc1ccccc1CCCNC(=O)c1csc(C(C)=O)c1 [CBK282513] | 139.714
56 | O=C(NC1CCCOC1)C1CCN(Cc2ccccc2Cl)CC1 (stereo not drawn) [CBK282520] | 180.583
57 | Cc1ccc(N2CCCC2=O)cc1S(=O)(=O)NC1C2CCCCC21 (stereo not drawn) [CBK282840] | 130.409
58 | Cc1noc2nc(C3CCCN(C(=O)C4CC4)C3)cc(C(F)F)c12 (stereo not drawn) [CBK284608] | 172.126
59 | CCOC(=O)c1cnc(SCc2cccc([N+](=O)[O-])c2)nc1N [CBK266449] | 143.606
60 | COCc1nc(CN2CCNC(=O)C2c2ccccc2C(F)(F)F)no1 (stereo not drawn) [CBK304157] | 135.472
61 | COc1ccc(S(=O)(=O)N(C)CC(=O)Nc2ccc(S(N)(=O)=O)cc2)cc1 [CBK265922] | 104.597
62 | CCC(C)(C)c1ccc(S(=O)(=O)N2CCN(CCCC#N)CC2)cc1 [CBK063134] | 128.34
63 | c1ccc2c(CN3CCCNCC3)cccc2c1 [CBK028773] | 125.695
64 | Cc1nc(-c2ccccc2)sc1C(=O)C1=C(O)C(=O)N(CCN2CCOCC2)C1c1cccs1 (stereo not drawn) [CBK266520] | 160.617
65 | c1ccc(OCCOc2nccnc2-c2ccsc2)cc1 [CBK106773] | 108.122
66 | COc1cc2c(cc1OC)C1c3ccccc3N(Cc3ccccc3)C(=O)N1CC2 (stereo not drawn) [CBK286192] | 116.667
67 | O=C(Cn1cc(C(=O)NC2(c3ccccc3)CCCC2)ccc1=O)NCc1ccc(F)cc1 [CBK286027] | 118.252
68 | C[C@H](Nc1cncc(-c2ccc3c(c2)OCO3)n1)c1ccccc1 [CBK065962] | 174.126
69 | CC1=C[C@@H](CNC(=O)c2cccnc2)[C@H](C(C)C)C[C@H]1CC(=O)N1CCCC1 [CBK289055] | 124.235
70 | COCCNC(=O)c1ccc(-c2ccccc2OC)nc1NCC1CC1 [CBK106246] | 104.534
71 | FC(F)(F)c1ccc(CN2CCN(c3nccnc3OCCN3CCOCC3)CC2)cc1 [CBK082890T] | 123.005
72 | Cc1nn(C)c(Cl)c1S(=O)(=O)Nc1ccc2nsnc2c1 [CBK062222] | 116.85
73 | O=C(CSc1nc2ccccc2s1)OCC(=O)c1cccc([N+](=O)[O-])c1 [CBK262361] | 105.307
74 | O=C(Nc1ccccc1O)c1ccc2c(c1)C(=O)N(c1ccc(Sc3ccc([N+](=O)[O-])cc3)cc1)C2=O [CBK262092] | 110.505
75 | O=C(c1nccs1)C1CCN(C(=O)Cc2cccc(F)c2)CC1 [CBK284208] | 136.922
76 | COc1cccc(CN2CCC3(C2)c2[nH]c4ccccc4c2CCN3Cc2cccc(OC)c2)c1 (stereo not drawn) [CBK059468] | 89.962
77 | Cc1cc(C)n2nc(NC(=O)C(C)Oc3ccccc3)nc2n1 (stereo not drawn) [CBK270039] | 123.199
78 | CC1(C)CN(Cc2cccc(-c3ccccn3)c2)CCS1(=O)=O [CBK304284] | 75.0849
